Results from the supplement of paper PMC10331698.
± gives the standard deviation of the averaged measurements. Most values lie at the level of the controls, where differences are scatter.

Assays:
Test in all cases: level (log10 ratio to DMSO vehicle control); higher = higher biomarker level / cell amount than vehicle control
Perfluoro-1-iodohexane = compound: FC(F)(F)C(F)(F)C(F)(F)C(F)(F)C(F)(F)C(F)(F)I [Perfluoro-1-iodohexane]; settings: in DMSO
Protocol: (§1)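 BioMAP Diversity Plus panel of 12 human primary cell co-culture systems (3C, 4H, LPS, SAg, BT, BF4T, BE3C, CASM3C, HDF3CGF, KF3CT, MyoF, Mphg). Compounds were added 1 h before stimulation and left for 24 h (MyoF 48 h; BT 72 h for soluble read-outs or 6 d for IgG). Biomarkers were read by ELISA, cytotoxicity by SRB, PBMC viability and proliferation by Alamar Blue. Each well value was divided by the mean of 8 DMSO control wells on the same plate and log10 transformed; duplicate blinded samples were tested at 4 concentrations.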

[1] = compound: C=CC(=O)OCC(F)(F)C(F)(F)C(F)(F)COC(=O)C=C [1H,1H,5H,5H-Perfluoro-1,5-pentanediol diacrylate]; settings: 2200 nM; in DMSO
Protocol: as §1

Hexafluoroamylene glycol = compound: OCC(F)(F)C(F)(F)C(F)(F)CO [Hexafluoroamylene glycol]; settings: 2200 nM; in DMSO
Protocol: as §1

[2] = compound: O=C(O)C(F)(F)C(F)(F)C(F)(F)C(F)(F)C(F)(F)C(F)(F)C(F)(F)C(F)(F)C(F)(F)C(F)(F)C(F)(F)C(F)(F)C(F)(F)F [Perfluorotetradecanoic acid]; settings: in DMSO
Protocol: as §1

[3] = compound: C=CC(=O)OCCC(F)(F)C(F)(F)C(F)(F)C(F)(F)F [2-(Perfluorobutyl)ethyl acrylate]; settings: 2200 nM; in DMSO
Protocol: as §1

[4] = compound: FC(F)(F)C(F)(C(F)(F)F)C(F)(F)C(F)(F)CC1CO1 [3-(Perfluoro-3-methylbutyl)-1,2-propenoxide]; settings: in DMSO
Protocol: as §1

[5] = compound: O=C(O)C=C(C(F)(F)F)C(F)(F)F [3,3-Bis(trifluoromethyl)-2-propenoic acid]; settings: in DMSO
Protocol: as §1

[6] = compound: O=S(=O)(O)C(F)(F)C(F)(F)C(F)(F)C(F)(F)C(F)(F)C(F)(F)F [Perfluorohexanesulfonic acid]; settings: 2200 nM; in DMSO
Protocol: as §1

[7] = compound: O=C(Cl)C(F)(F)C(F)(F)C(F)(F)C(=O)Cl [Hexafluoroglutaryl chloride]; settings: 2200 nM; in DMSO
Protocol: as §1

[8] = compound: C=CC(=O)OCCC(F)(F)C(F)(F)C(F)(F)C(F)(F)C(F)(F)C(F)(F)C(F)(F)C(F)(F)F [8:2 Fluorotelomer acrylate]; settings: 2200 nM; in DMSO
Protocol: as §1

[9] = compound: OCCCC(F)(F)C(F)(F)C(F)(F)C(F)(F)C(F)(F)C(F)(F)C(F)(F)F [7:3 Fluorotelomer alcohol]; settings: 2200 nM; in DMSO
Protocol: as §1

[10] = compound: FC(F)(I)C(F)(F)C(F)(F)C(F)(F)C(F)(F)C(F)(F)I [1,6-Diiodoperfluorohexane]; settings: 2200 nM; in DMSO
Protocol: as §1

[11] = compound: O=S(=O)(O)CCC(F)(F)C(F)(F)C(F)(F)C(F)(F)F [4:2 Fluorotelomer sulfonic acid]; settings: 2200 nM; in DMSO
Protocol: as §1

Test System | level (log10) (Perfluoro-1-iodohexane; 2200 nM) | level (log10) (Perfluoro-1-iodohexane; 6700 nM) | level (log10) (Perfluoro-1-iodohexane; 20000 nM) | level (log10) (Perfluoro-1-iodohexane; 60000 nM) | level (log10) [1] | level (log10) (Hexafluoroamylene glycol) | level (log10) ([2]; 740 nM) | level (log10) ([2]; 2200 nM) | level (log10) [3] | level (log10) ([4]; 740 nM) | level (log10) ([4]; 2200 nM) | level (log10) ([5]; 2200 nM) | level (log10) ([5]; 6700 nM) | level (log10) ([5]; 20000 nM) | level (log10) ([5]; 60000 nM) | level (log10) [6] | level (log10) [7] | level (log10) [8] | level (log10) [9] | level (log10) [10] | level (log10) [11]
BF4T:CCL2/MCP-1 | 0.014 ± 0.03 | -0.002 ± 0.025 | -0.024 ± 0.025 | -0.0315 ± 0.028 | -0.0055 ± 0.032 | 0.0505 ± 0.054 | 0.013 ± 0.031 | 0.0175 ± 0.015 | 0.0155 ± 0.026 | 0.0205 ± 0.042 | 0.0145 ± 0.013 | 0 ± 0.045 | 0.0005 ± 0.0021 | -0.052 ± 0.031 | -0.0635 ± 0.0064 | 0.004 ± 0.038 | -0.0135 ± 0.037 | -0.0085 ± 0.00071 | 0.0375 ± 0.0035 | 0.0135 ± 0.0064 | 0.0155 ± 0.056
CASM3C:HLA-DR | 0.0255 ± 0.019 | 0.0075 ± 0.0092 | 0.004 ± 0.0057 | 0.0095 ± 0.022 | 0.0025 ± 0.005 | -0.0165 ± 0.016 | -0.0055 ± 0.032 | -0.0205 ± 0.018 | -0.027 ± 0.037 | -0.008 ± 0.0099 | -0.014 ± 0.0057 | -0.0765 ± 0.071 | -0.121 ± 0.0028 | -0.167 ± 0.0085 | -0.181 ± 0.067 | 0.007 ± 0.03 | 0.006 ± 0.025 | 0.003 ± 0.054 | 0.0155 ± 0.012 | -0.0115 ± 0.025 | 0.0165 ± 0.0035
BE3C:MMP-9 | -0.0045 ± 0.013 | 0.0075 ± 0.0092 | 0.013 ± 0.0028 | 0.001 ± 0.023 | 0.011 ± 0.0028 | 0.004 ± 0.0014 | -0.0105 ± 0.023 | 0.001 ± 0.057 | 0.0155 ± 0.016 | 0.008 ± 0.044 | -0.0035 ± 0.022 | -0.017 ± 0.04 | -0.0425 ± 0.005 | -0.0735 ± 0.0021 | -0.079 ± 0.027 | -0.003 ± 0.02 | 0.016 ± 0.016 | -0.0195 ± 0.036 | -0.0245 ± 0.032 | -0.023 ± 0.027 | -0.002 ± 0.024
BE3C:CXCL10/IP-10 | 0.033 ± 0.014 | 0.013 ± 0.018 | 0.0135 ± 0.0078 | 0.0355 ± 0.022 | -0.0105 ± 0.0078 | -0.003 ± 0.013 | 0.022 ± 0.0014 | 0.0145 ± 0.0064 | -0.001 ± 0.0057 | 0.0065 ± 0.015 | -0.0075 ± 0.0064 | -0.0145 ± 0.028 | -0.022 ± 0.027 | -0.0195 ± 0.026 | -0.0295 ± 0.00071 | 0.0155 ± 0.0035 | 0.0415 ± 0.015 | -0.011 ± 0.011 | 0.041 ± 0.016 | 0.0095 ± 0.00071 | 0.002 ± 0.0028
MyoF:MMP-1 | 0.0025 ± 0.046 | 0.036 ± 0.0071 | 0.451 ± 0.19 | 0.661 ± 0.0028 | 0.0495 ± 0.056 | -0.017 ± 0.064 | 0.0115 ± 0.005 | 0.005 ± 0.0014 | -0.017 ± 0.018 | -0.005 ± 0.0057 | -0.009 ± 0.0099 | 0.012 ± 0.085 | -0.0075 ± 0.0092 | -0.0445 ± 0.0078 | -0.0085 ± 0.093 | 0.014 ± 0.055 | -0.0455 ± 0.042 | 0.0325 ± 0.087 | 0.0205 ± 0.071 | 0.139 ± 0.1 | -0.0185 ± 0.039
4H:VEGFR2 | 0.0185 ± 0.019 | 0.0075 ± 0.0092 | 0.006 ± 0.02 | 0.004 ± 0.023 | 0.0045 ± 0.11 | 0.0145 ± 0.036 | 0.038 ± 0.037 | 0.0095 ± 0.064 | 0.022 ± 0.014 | 0.0185 ± 0.03 | -0.006 ± 0.014 | 0.003 ± 0.033 | -0.02 | -0.019 ± 0.0099 | -0.04 ± 0.0057 | 0.001 ± 0.014 | -0.011 ± 0.081 | 0.0125 ± 0.005 | 0.018 ± 0.031 | 0.0445 ± 0.064 | -0.0555 ± 0.018
